# This is one part of the list.
# Sequences of proteins named here, by UniProt entry; tags and fusion partners are left off. A change or cut given only in a name is not applied to a line headed by its entry.
# UniProt Q9NZL4: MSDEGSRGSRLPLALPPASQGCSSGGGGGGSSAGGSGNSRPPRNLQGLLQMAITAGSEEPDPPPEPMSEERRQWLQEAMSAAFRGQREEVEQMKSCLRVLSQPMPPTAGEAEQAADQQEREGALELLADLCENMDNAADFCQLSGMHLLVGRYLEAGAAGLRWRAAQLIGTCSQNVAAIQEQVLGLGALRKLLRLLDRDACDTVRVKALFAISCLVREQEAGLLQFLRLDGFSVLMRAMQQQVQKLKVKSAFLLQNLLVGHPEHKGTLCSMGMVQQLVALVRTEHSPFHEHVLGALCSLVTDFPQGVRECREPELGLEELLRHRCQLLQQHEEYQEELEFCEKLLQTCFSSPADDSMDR
# UniProt P30519: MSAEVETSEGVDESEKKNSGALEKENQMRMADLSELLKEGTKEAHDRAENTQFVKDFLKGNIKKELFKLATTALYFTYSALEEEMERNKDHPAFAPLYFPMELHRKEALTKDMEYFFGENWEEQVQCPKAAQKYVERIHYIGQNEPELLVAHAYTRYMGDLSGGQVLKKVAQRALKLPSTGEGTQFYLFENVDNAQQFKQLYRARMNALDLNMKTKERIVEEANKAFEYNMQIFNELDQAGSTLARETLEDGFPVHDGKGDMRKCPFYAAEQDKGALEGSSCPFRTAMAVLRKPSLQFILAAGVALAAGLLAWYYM
# UniProt O14979: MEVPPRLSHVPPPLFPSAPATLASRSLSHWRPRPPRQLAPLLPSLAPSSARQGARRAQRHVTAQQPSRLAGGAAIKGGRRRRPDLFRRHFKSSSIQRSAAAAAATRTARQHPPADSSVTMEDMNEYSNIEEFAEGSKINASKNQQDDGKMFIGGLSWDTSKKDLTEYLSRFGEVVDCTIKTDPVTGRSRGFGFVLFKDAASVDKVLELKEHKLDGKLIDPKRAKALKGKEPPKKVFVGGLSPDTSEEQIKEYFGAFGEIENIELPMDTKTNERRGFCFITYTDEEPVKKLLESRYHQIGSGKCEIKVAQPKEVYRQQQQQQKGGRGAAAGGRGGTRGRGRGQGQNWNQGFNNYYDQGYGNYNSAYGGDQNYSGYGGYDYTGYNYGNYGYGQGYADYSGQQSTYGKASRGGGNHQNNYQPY
# UniProt O95757: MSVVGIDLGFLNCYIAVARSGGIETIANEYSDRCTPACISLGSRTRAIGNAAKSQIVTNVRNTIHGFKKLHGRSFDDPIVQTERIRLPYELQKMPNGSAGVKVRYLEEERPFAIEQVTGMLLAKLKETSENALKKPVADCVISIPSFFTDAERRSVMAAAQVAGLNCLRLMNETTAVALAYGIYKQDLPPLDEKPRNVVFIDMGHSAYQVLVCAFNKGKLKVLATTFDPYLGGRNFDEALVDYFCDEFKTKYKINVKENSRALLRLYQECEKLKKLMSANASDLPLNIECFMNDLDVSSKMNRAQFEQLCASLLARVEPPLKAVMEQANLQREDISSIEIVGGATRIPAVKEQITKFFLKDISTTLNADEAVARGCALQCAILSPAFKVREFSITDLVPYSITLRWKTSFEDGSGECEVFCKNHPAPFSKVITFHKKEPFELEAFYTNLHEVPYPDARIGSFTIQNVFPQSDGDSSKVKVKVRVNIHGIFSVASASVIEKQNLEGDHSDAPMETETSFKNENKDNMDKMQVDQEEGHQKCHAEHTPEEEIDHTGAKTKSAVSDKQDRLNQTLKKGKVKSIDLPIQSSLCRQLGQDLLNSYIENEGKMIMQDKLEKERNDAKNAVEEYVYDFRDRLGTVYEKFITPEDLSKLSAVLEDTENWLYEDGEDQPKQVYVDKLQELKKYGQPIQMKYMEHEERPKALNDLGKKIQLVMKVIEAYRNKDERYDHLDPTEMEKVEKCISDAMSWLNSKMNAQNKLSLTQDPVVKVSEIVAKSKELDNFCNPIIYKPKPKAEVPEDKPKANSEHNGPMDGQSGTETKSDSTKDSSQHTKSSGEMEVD
# UniProt P08238, whole entry, looked up: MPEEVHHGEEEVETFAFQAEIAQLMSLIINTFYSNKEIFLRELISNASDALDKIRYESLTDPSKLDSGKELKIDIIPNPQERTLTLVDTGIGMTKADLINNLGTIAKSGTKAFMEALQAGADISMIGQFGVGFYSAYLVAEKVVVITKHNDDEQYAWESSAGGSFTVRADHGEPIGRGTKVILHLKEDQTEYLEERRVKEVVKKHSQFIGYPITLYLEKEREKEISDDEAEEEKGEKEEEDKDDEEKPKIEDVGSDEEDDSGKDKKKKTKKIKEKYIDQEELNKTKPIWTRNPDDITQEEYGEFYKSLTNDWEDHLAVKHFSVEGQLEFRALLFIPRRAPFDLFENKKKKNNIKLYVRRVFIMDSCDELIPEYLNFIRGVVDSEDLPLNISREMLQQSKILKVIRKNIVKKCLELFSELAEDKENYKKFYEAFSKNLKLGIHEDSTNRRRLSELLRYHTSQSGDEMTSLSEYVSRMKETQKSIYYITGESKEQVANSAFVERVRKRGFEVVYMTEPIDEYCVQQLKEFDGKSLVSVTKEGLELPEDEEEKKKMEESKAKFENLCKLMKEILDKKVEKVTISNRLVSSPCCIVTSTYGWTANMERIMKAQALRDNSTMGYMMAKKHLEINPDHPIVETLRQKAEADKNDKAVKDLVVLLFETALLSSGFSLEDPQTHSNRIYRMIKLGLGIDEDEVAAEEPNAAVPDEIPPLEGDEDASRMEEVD
# UniProt Q92598: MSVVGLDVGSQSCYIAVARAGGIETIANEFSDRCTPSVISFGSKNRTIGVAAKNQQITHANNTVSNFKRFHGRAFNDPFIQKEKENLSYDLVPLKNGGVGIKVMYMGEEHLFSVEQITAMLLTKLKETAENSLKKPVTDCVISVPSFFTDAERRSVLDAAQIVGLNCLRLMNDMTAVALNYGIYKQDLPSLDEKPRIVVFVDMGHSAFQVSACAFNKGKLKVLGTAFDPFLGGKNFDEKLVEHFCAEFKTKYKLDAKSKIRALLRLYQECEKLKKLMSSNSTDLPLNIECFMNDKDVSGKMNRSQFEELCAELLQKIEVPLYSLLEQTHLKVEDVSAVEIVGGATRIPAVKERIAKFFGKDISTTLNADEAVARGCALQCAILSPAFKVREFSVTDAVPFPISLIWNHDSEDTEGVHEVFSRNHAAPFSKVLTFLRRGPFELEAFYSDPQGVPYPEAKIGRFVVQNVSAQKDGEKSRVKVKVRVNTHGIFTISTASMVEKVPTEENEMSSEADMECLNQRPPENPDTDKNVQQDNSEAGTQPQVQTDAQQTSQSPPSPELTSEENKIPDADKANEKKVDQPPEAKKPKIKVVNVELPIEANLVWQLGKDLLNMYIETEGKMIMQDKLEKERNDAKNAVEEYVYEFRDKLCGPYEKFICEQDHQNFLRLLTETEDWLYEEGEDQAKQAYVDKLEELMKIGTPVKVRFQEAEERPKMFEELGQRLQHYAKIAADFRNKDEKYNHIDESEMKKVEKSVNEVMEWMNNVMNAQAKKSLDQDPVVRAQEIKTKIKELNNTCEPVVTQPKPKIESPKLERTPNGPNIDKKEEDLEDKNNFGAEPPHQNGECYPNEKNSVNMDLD
# UniProt P34932: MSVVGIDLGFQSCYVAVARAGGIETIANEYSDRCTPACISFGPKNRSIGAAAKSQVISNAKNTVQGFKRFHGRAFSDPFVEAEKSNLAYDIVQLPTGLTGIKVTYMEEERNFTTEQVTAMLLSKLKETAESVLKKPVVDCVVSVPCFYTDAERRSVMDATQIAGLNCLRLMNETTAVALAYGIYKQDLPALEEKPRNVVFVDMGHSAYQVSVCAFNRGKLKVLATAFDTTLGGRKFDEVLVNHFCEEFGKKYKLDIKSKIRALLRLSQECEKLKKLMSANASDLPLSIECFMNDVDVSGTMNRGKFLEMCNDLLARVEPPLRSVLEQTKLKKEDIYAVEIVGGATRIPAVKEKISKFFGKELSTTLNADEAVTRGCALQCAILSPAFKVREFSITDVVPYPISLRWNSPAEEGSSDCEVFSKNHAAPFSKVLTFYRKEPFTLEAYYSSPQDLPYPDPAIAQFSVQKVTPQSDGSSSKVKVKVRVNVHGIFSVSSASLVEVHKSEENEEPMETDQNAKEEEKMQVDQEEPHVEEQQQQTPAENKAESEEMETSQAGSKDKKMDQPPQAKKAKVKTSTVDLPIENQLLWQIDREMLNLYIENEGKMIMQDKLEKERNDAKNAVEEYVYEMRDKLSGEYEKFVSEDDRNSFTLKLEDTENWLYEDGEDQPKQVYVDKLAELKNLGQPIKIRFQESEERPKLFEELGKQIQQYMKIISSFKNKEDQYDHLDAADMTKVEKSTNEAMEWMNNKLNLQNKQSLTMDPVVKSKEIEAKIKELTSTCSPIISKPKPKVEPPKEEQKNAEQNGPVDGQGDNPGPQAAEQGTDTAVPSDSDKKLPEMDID
# UniProt P51659: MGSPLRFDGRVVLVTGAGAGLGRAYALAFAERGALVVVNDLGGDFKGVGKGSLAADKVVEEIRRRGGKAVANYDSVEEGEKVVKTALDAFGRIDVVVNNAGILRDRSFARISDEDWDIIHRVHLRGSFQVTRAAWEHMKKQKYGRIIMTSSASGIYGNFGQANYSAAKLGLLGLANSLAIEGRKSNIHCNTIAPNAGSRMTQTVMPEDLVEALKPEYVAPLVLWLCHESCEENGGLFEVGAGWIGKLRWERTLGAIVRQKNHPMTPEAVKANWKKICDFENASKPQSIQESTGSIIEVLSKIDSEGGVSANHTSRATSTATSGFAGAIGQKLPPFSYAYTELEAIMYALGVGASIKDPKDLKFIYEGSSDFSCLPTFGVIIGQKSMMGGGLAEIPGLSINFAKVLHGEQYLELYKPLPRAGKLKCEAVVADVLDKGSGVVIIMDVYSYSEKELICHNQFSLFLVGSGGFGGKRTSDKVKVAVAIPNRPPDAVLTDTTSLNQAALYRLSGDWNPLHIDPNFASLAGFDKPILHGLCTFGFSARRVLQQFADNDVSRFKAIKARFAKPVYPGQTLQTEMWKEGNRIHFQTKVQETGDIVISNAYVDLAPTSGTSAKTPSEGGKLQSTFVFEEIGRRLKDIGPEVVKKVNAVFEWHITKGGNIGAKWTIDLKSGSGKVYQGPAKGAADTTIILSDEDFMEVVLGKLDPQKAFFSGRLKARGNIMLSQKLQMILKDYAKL
# UniProt Q9BUJ2: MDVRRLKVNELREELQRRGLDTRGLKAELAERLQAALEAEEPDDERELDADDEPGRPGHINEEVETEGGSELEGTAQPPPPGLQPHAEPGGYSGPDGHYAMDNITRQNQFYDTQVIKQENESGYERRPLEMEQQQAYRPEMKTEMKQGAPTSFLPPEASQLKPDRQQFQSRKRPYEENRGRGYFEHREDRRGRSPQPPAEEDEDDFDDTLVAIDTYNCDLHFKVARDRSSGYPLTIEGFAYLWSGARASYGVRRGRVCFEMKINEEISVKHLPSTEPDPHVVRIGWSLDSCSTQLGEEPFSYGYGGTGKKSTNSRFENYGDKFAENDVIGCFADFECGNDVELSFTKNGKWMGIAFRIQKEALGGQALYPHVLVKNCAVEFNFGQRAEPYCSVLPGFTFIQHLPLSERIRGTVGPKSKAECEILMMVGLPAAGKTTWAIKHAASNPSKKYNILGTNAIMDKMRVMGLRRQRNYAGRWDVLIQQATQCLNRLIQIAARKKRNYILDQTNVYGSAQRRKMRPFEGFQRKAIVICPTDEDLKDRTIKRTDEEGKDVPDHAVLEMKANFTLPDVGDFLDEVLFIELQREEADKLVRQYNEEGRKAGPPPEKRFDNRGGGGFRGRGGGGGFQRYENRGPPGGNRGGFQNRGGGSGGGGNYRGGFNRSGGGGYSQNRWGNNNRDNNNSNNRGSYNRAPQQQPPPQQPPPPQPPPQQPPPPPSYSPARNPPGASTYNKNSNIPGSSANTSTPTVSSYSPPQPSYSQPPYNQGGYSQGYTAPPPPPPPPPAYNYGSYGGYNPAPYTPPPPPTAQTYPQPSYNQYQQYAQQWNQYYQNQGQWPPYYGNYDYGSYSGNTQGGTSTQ
# UniProt Q0VDF9: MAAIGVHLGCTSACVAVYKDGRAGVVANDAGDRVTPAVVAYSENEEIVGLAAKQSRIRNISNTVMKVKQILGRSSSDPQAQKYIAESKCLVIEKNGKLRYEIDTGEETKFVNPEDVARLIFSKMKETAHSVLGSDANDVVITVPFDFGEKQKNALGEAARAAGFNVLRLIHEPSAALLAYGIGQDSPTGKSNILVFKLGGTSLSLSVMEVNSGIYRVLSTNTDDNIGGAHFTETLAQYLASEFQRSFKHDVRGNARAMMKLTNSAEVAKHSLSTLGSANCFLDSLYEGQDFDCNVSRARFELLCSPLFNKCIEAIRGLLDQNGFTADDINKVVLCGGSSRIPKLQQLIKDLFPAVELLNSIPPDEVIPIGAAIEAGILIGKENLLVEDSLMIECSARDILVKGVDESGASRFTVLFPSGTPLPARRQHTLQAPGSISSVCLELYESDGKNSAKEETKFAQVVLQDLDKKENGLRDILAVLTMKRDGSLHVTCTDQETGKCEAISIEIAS
# Compound: Cc1cc(ccc1-c1ccccc1)C(=O)N1CCCN(CC1)C(=O)CCl [compound 10]
# Experiment: probe-labelled cysteine peptide fold change vs DMSO (competition) (log2 fold change); higher = less target engagement (more negative = stronger competition)
# Details: 10 µM; THP-1; incubation time: 4 h
# 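Also: competitive profiling in live THP-1 cells: cysteine peptides tagged with an iodoacetamide desthiobiotin (IA-DTB) probe, intensity after compound treatment relative to DMSO-treated cells.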
row,Target,probe-labelled cysteine peptide fold change
1,HNRNPA1_P09651_43_SHFEQWGTLTDCVVMR (UniProt P09651),0.0768
2,HSPBP1_Q9NZL4_348_LLQTCFSSPADDSMDR (UniProt Q9NZL4),0.0573
3,HUWE1_Q7Z6Z7_1832_HIIEDPCTLR (UniProt Q7Z6Z7),-0.188
4,HMOX2_P30519_127_DMEYFFGENWEEQVQCPK (UniProt P30519),-0.0262
5,HNRNPDL_O14979_277_RGFCFITYTDEEPVKK (UniProt O14979),0.232
6,HSPA4L_O95757_540_CHAEHTPEEEIDHTGAK (UniProt O95757),-0.0538
7,HNRNPA0_Q13151_49_CFGFVTYSNVEEADAAMAASPHAVDGNTVELKR (UniProt Q13151),0.122
8,HSP90AB1_P08238_412_CLELFSELAEDK (UniProt P08238),0.16
9,HSPH1_Q92598_796_ELNNTCEPVVTQPKPK (UniProt Q92598),0.108
10,HSPA4_P34932_213_NVVFVDMGHSAYQVSVCAFNR (UniProt P34932),0.152
11,HSD17B4_P51659_277_KICDFENASKPQSIQESTGSIIEVLSK (UniProt P51659),-0.047
12,HOMEZ_Q8IX15_273_DKPPPIALIASSCK (UniProt Q8IX15),-0.152
13,HSPH1_Q92598_167_SVLDAAQIVGLNCLR (UniProt Q92598),0.109
14,HSPH1_Q92598_796_ELNNTCEPVVTQPK (UniProt Q92598),0.219
15,HSPA4_P34932_270_LSQECEK (UniProt P34932),-0.0609
16,HNRNPU_Q00839_389+391_TCNCETEDYGEK (UniProt Q00839),-0.00884
17,HNRNPF_P52597_22+34_GLPWSCSVEDVQNFLSDCTIHDGAAGVHFIYTR (UniProt P52597),0.101
18,HSPA2_P54652_18_GPAIGIDLGTTYSCVGVFQHGK (UniProt P54652),0.213

row,Target,probe-labelled cysteine peptide fold change
1,HSPA4L_O95757_34+38_CTPACISLGSR (UniProt O95757),0.153
2,HSPH1_Q92598_310_SQFEELCAELLQK (UniProt Q92598),-0.0659
3,HNRNPUL1_Q9BUJ2_421_SKAECEILMMVGLPAAGK (UniProt Q9BUJ2),0.0608
4,HNRNPH2_P55795_22_GLPWSCSADEVMR (UniProt P55795),0.118
5,HTT_P42858_777_GATAILCGTLICSILSR (UniProt P42858),-0.228
6,HSPA4_P34932_146_KPVVDCVVSVPCFYTDAER (UniProt P34932),-0.0289
7,HNRNPUL1_Q9BUJ2_377_NCAVEFNFGQR (UniProt Q9BUJ2),0.093
8,HNRNPM_P52272_114_GCAVVEFK (UniProt P52272),0.0727
9,HNRNPL_P14866_521_IQHPSNVLHFFNAPLEVTEENFFEICDELGVK (UniProt P14866),0.092
10,HSPA4L_O95757_417+421_TSFEDGSGECEVFCK (UniProt O95757),-0.216
11,HSPA4_P34932_290_KLMSANASDLPLSIECFMNDVDVSGTMNR (UniProt P34932),0.0906
12,HPRT1_P00492_23_SPGVVISDDEPGYDLDLFCIPNHYAEDLER (UniProt P00492),-0.297
13,HNRNPA2B1_P22626_50_LTDCVVMRDPASK (UniProt P22626),0.0621
14,HSPA14_Q0VDF9_492_DGSLHVTCTDQETGK (UniProt Q0VDF9),-0.0228
15,HSPA4_P34932_140+146_KPVVDCVVSVPCFYTDAER (UniProt P34932),0.18
16,HSPA9_P38646_366_TIAPCQK (UniProt P38646),-0.191
17,HNRNPLL_Q8WVV9_84_GLCESVVEADLVEALEK (UniProt Q8WVV9),-0.215
18,HSP90AB1_P08238_366_VFIMDSCDELIPEYLNFIR (UniProt P08238),-0.121
